{"source": "PubChem BioAssay AID1224830 – NIAID | 2016", "test": "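Regulators of TLR4 signalling towards TNF-alpha in macrophage-like cells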 (primary screen)", "cells": "human THP-1 monocytic leukaemia cells, TNF dual-luciferase reporter clone, PMA-differentiated to macrophage-like cells", "knock-down reagent": "siRNA pool against human genes, 50 nM", "timing": "LPS for 4 h, given about 3 days after siRNA transfection", "treatment": "bacterial LPS (TLR4 ligand), 10 ng/ml", "measured": "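TNF firefly reporter luminescence divided by renilla, normalised to the plate median, then turned into a robust z-score for each replicate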", "scale": "TNF reporter robust z-score: higher = stronger TNF reporter response to LPS", "call rule": "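a well is active when its z-score exceeds 2.8 or falls below -1.5; control wells carry no call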", "note": "Shown is an unselected part of about 18,000 reagents. About 2,900 of them (16%) were called active. 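Calls are made per well; low scores hint the gene aids the LPS response, high scores that it dampens it.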 Repeated entries: four replicate wells of each siRNA pool. No sequences are given here."}
{"gene":"LINC00173","TNF reporter robust z-score":0.52,"Call":"inactive"}
{"gene":"LINC00173","TNF reporter robust z-score":0.73,"Call":"inactive"}
{"gene":"LINC00173","TNF reporter robust z-score":0.53,"Call":"inactive"}
{"gene":"LINC00173","TNF reporter robust z-score":0.02,"Call":"inactive"}
{"gene":"MTERF4","TNF reporter robust z-score":-0.93,"Call":"inactive"}
{"gene":"MTERF4","TNF reporter robust z-score":-1.79,"Call":"active"}
{"gene":"MTERF4","TNF reporter robust z-score":-1.49,"Call":"inactive"}
{"gene":"MTERF4","TNF reporter robust z-score":-1.31,"Call":"inactive"}
{"gene":"NLRP11","TNF reporter robust z-score":0.6,"Call":"inactive"}
{"gene":"NLRP11","TNF reporter robust z-score":1.68,"Call":"inactive"}
{"gene":"NLRP11","TNF reporter robust z-score":0.92,"Call":"inactive"}
{"gene":"NLRP11","TNF reporter robust z-score":1.52,"Call":"inactive"}
{"gene":"CLEC2D","TNF reporter robust z-score":-0.8,"Call":"inactive"}
{"gene":"CLEC2D","TNF reporter robust z-score":-0.32,"Call":"inactive"}
{"gene":"CLEC2D","TNF reporter robust z-score":-0.95,"Call":"inactive"}
{"gene":"CLEC2D","TNF reporter robust z-score":-0.17,"Call":"inactive"}

Copied from the listing for reference:
{"gene":"MTERF4","TNF reporter robust z-score":-1.79,"Call":"active"}
{"gene":"MTERF4","TNF reporter robust z-score":-1.49,"Call":"inactive"}
{"gene":"MTERF4","TNF reporter robust z-score":-1.31,"Call":"inactive"}
{"gene":"NLRP11","TNF reporter robust z-score":0.6,"Call":"inactive"}
{"gene":"NLRP11","TNF reporter robust z-score":1.68,"Call":"inactive"}

Continued:
{"gene":"PDGFB","TNF reporter robust z-score":-0.7,"Call":"inactive"}
{"gene":"PDGFB","TNF reporter robust z-score":-0.46,"Call":"inactive"}
{"gene":"PDGFB","TNF reporter robust z-score":-0.58,"Call":"inactive"}
{"gene":"PDGFB","TNF reporter robust z-score":-0.66,"Call":"inactive"}
{"gene":"RPS11","TNF reporter robust z-score":2.44,"Call":"inactive"}
{"gene":"RPS11","TNF reporter robust z-score":2.85,"Call":"active"}
{"gene":"RPS11","TNF reporter robust z-score":1.34,"Call":"inactive"}
{"gene":"RPS11","TNF reporter robust z-score":3,"Call":"active"}
{"gene":"BTNL2","TNF reporter robust z-score":-0.46,"Call":"inactive"}
{"gene":"BTNL2","TNF reporter robust z-score":-0.75,"Call":"inactive"}
{"gene":"BTNL2","TNF reporter robust z-score":-0.44,"Call":"inactive"}
{"gene":"BTNL2","TNF reporter robust z-score":0.11,"Call":"inactive"}
{"gene":"NAE1","TNF reporter robust z-score":0.65,"Call":"inactive"}
{"gene":"NAE1","TNF reporter robust z-score":0.95,"Call":"inactive"}
{"gene":"NAE1","TNF reporter robust z-score":2.01,"Call":"inactive"}
{"gene":"EIF1AX","TNF reporter robust z-score":0.51,"Call":"inactive"}
{"gene":"EIF1AX","TNF reporter robust z-score":1.67,"Call":"inactive"}
{"gene":"EIF1AX","TNF reporter robust z-score":1.43,"Call":"inactive"}
{"gene":"EIF1AX","TNF reporter robust z-score":2.46,"Call":"inactive"}
